Results published in publication PMC3937224, “Convergence of Light and ABA Signaling on the ABI5 Promoter” (PLoS Genetics, 2014).

Target: T1, ABI5 (Arabidopsis thaliana) (UniProt Q9SJN0)
T1 sequence: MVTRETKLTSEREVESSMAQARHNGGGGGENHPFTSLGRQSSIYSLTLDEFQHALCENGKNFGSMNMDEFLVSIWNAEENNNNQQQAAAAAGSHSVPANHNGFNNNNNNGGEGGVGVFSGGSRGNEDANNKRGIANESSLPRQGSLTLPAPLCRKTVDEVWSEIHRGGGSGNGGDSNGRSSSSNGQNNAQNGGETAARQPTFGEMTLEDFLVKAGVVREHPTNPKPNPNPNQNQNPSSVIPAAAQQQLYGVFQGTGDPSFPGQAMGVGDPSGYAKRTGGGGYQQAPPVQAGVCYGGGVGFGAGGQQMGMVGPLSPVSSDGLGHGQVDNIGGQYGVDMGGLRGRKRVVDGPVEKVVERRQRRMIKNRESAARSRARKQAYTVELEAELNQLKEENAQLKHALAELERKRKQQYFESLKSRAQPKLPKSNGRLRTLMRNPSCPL
Assay: two-hybrid; yeast two-hybrid; X-gal plates and liquid assay (Clontech Yeast Protocols Handbook); BBX21 domains fused to GAL4-AD

Row | binding | Substance
1 | no binding | C-terminal domain of BBX21 (Arabidopsis thaliana) (domain or fragment)
2 | no binding | N-terminal domain of BBX21 (the B-box domain) (Arabidopsis thaliana) (domain or fragment)

No constants are given. Whether binding was seen depends on the method and setting.
